Experimental data taken from patent US4900538A (Suntory Limited, priority 1982, dated 1990).
At least one compound was matched to its structure with a doubt left.

Tested on: Escherichia coli K 12 envA uvr B (λ), GY 5027
Format: cell-based
Details: absence of S9 mix (FIG. 5)
Source text: Inductest III (P. Morean, A. Bailone and R. Devoret: Proc. Natl. Acad. Sci. U.S.A., Vol. 73, No. 10, 3700-3704, '76). This method is a test for mutagenicity using prophage λ induction as an index. The strains used in this method were Escherichia coli K 12 envA uvr B (λ), GY 5027 and as λ indicator GY 4015 (Amp R).
This method uses phage induction activity as an index.
Potassium sulfite was used as a sulfite compound and potassium pyrosulfite which produces 2 equivalents of hydrogensulfite ion when dissolved in water was used as acid sulfite.
Dithionite produces two equivalents of hydrogensulfite ions when dissolved in water.
The molar ratio of sodium dithionite to daunomycin was 15:1. In FIGS. 13 and 14 the symbol indicates daunomycin alone and the symbol indicates daunomycin plus sodium dithionite.
Sodium sulfite was used as a sulfite at a molar ratio of sodium sulfite to daunomycin of 30:1.

For O=S(O)O [hydrogensulfite ion], the “Mol ratio of adriamycin to sodium hydrogensulfite at which mutagenicity of adriamycin is inactivated” value was 1:0.2.
